Experimental data reported in patent publication US20190111168A1, “PHOTOSENSITIZER DISPERSION, AND USE THEREOF” (Universität Regensburg, priority 2016, published 2019).
Some results were stated once for a whole list of compounds, not compound by compound.

The molecules below were run on Staphylococcus aureus (S. aureus; ATCC Number: 25923) (assay: phototoxicity measurements (MTT test; colony forming units by Miles and Misra)). Conditions: in water; concentration 50 to 500 μM; completely destroyed.
Format: cell-based
Text: In order to investigate the phototoxicity of the microemulsions in accordance with the invention, a MTT test was used. Assaying cell vitality using a MTT test is based on the reduction of the yellow, water-soluble dye 3-(4,5-dimethylthiazol-2-yl)-2,5-diphenyltetrazolium bromide (MIT, Sigma-Aldrich Chemie GmbH, Munich, DE) into a blue-violet […] (formazan) which is insoluble in water. MTT is a dye which can pass through membranes, which is metabolized by mitochondrial dehydrogenases in living cells, which in the end leads to the formation of formazan crystals.
Formazan crystals can no longer pass through the membranes and accumulate in proliferating undamaged cells. After cell lysis and dissolving the crystals, the dye is then quantified by colorimetric measurement at 550 nm in a multi-well spectrophotometer (ELISA reader). The quantity of formazan formed is determined as the optical density (OD). The measured quantity of formazan is directly proportional to the number of proliferating cells, so that this test is suitable for the measurement of the phototoxicity of the microemulsions used. The measured OD can be assigned a cell count by means of a previously determined calibration curve. […]
Finally, the optical density (OD) was determined with the aid of a microtitre plate photometer (model EAR 400 AT, SLT Laborinstruments Austria, Salzburg, AT).
After lysis of the cells and dissolution of the crystals, the dye could then be quantified in a multi-well spectrophotometer (ELISA-Reader) by colorimetric measurement at 550 nm.
The determination of the colony forming units was carried out in accordance with the method published by Miles and Misra (Miles, AA; Misra, SS, Irwin, JO (1938 November). “The estimation of the bactericidal power of the blood” The Journal of hygiene 38 (6): 732-49). […] Next, the number of surviving colony forming units (CFU) was determined. […]
In the case of `O=C1C(C[n+]2ccccc2)=Cc2cccc3cccc1c23.[Cl-]` [SA-PN-01a], the “reduction in quantity of S. aureus following irradiation” value (from here on “reduction in quantity”) was “more than 6 log10 units”.
With `C[N+](C)(C)CC1=Cc2cccc3cccc(c23)C1=O.[Cl-]` [SA-PN-02a, N,N,N-trimethyl-1-(1-oxo-1H-phenalen-2-yl)methanaminium chloride] the “reduction in quantity” value was “more than 6 log10 units”.
`CN(CC1=Cc2cccc3cccc(c23)C1=O)C(=N)N.Cl` [SA-PN-24d, 1-((1-oxo-1H-phenalen-2-yl)methyl)-1-methylguanidinium chloride] was tested, and the “reduction in quantity” value was “more than 6 log10 units”.
